At least one structure is not confirmed: it was looked up by name or label, or the drawing left a doubt.
Target: T1, Grb2 binding to p185erbB-2 (Homo sapiens, UniProt P62993)
T1 construct: endogenous in cells; host or cells: MDA-MB-453 breast cancer cells
Test: Inhibition of Grb2 SH2 domain binding in whole cells (Grb2 binding to p185erbB-2, MDA-MB-453)
Format: cell-based
Settings: FIG. 25; MDA453 cells

Amino acid sequences for entries named in this document (tags omitted).
UniProt P62993, whole entry: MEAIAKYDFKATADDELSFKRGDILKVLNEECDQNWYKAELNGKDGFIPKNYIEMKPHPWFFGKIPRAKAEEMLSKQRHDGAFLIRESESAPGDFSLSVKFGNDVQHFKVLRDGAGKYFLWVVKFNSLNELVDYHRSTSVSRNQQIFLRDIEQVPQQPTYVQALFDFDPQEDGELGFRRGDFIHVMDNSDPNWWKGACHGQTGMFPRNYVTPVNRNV

NC(=O)C[C@@H]1NC(=O)C2(CCCCC2)NC(=O)[C@@H](CC(=O)O)[C@@H](c2ccc(CP(=O)(O)O)cc2)/C=C/C[C@@H](Cc2cccc3ccccc23)CNC1=O [Compound 233, 2-[(9S, 10S, 14S, 18S)-7, 16, 19-triaza-18-(carbamoylmethyl)-14-(naphthylmethyl)-8,17,20-trioxo-10-[4-(phosphonomethyl)phenyl]spiro[5.14]icos-11-en-9-yl]acetic acid]
Inhibiting Grb2 SH2 domain binding in whole cell assays: very effective

Source: patent US7425537B2, “SH2 domain binding inhibitors” (The United States of America as represented by the …, priority 2000, dated 2008)
